Data as given in patent US20020106347A1, “Cytokines and their use in treatment and/or prophylaxis of breast cancer” (priority 1995, published 2002).

Tested on: MCF-7 cell line
Assay: Receptor binding of radioiodinated ligand to MCF-7 cells, Scatchard analysis
Design: species or system human
Details: MCF-7, Scatchard analysis
Experimental: FIG. 20 is a graphical representation showing Scatchard analyses of the saturation isotherms of LIF and OSM binding to breast cancer cell lines. Cells were incubated with various concentrations of labelled or unlabelled ligand in the presence or absence of a 10-100 fold excess of unlabelled ligand. After 18 hr on ice, bound and free ligand were separated by centrifugation through bovine calf serum. Bound and free ^125I-ligand was quantitated in a γ-counter and the data was depicted as a Scatchard transformation. Data was normalised for cell number and is shown as binding to 10^6 cells. A) Saturation isotherm of LIF binding to the MCF-7 cell line. […] B) Saturation isotherm of OSM binding to the MDA-MB-231 cell line.
Receptor binding assays were performed using radioiodinated LIF (^125I-LIF) and OSM (^125I-OSM). The radioiodination of LIF and OSM and binding assays were essentially performed as previously described (Hilton et al., 1991; Hilton and Nicola, 1992). […] The pellet and supernatant were subsequently counted in a γ-counter. […] Number of cell surface receptors and dissociation constant were calculated by Scatchard analysis.

Row | Substance | estimated receptors per cell [receptors per cell]
1 | oncostatin M [OSM] | 990
2 | Leukemia Inhibitory Factor [LIF] | 57
